Data: the supplement of paper PMC10849652
The list shows a part of the results.

By UniProt entry, the sequences of proteins in these tests, tags left out. Where a name states a change or a piece, a line headed by the entry shows the natural chain unless it says otherwise.
UniProt P50225: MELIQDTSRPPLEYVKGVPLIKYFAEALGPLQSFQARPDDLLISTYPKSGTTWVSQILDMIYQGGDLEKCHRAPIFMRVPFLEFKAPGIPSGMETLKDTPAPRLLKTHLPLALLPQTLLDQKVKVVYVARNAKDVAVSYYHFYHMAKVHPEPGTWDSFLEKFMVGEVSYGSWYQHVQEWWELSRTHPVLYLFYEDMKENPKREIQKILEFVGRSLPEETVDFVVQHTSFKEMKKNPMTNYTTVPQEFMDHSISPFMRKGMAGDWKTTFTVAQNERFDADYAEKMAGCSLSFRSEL
UniProt Q8WXE9: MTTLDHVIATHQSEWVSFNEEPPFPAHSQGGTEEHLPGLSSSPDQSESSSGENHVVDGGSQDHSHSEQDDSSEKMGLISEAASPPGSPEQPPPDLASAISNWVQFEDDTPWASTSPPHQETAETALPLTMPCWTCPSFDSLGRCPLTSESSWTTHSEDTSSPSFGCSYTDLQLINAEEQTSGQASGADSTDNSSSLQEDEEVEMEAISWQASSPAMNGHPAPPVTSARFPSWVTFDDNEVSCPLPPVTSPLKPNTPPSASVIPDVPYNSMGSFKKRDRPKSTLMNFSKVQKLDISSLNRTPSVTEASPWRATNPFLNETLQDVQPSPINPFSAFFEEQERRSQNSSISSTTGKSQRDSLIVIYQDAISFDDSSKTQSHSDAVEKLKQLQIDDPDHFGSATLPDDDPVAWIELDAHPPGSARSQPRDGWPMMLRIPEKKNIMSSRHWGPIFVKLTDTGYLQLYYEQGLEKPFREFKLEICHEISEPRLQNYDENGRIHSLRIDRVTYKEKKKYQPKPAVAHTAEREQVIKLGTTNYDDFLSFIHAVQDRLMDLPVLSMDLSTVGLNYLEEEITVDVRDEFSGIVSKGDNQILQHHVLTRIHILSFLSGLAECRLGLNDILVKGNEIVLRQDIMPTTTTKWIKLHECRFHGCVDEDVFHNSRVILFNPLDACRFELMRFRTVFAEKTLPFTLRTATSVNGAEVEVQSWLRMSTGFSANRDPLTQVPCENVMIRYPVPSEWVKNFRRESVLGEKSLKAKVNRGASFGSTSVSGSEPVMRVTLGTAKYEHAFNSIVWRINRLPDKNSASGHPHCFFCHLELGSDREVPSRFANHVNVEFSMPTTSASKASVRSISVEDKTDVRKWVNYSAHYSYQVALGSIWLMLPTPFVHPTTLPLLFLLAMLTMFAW
UniProt O15400: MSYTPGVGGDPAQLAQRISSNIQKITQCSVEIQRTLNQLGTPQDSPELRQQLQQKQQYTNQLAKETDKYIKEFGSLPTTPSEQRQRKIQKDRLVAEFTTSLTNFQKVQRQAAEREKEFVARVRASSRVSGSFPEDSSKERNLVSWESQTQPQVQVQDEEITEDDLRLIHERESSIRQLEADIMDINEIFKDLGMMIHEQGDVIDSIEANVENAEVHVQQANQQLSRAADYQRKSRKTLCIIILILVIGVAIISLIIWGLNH
UniProt Q7Z422: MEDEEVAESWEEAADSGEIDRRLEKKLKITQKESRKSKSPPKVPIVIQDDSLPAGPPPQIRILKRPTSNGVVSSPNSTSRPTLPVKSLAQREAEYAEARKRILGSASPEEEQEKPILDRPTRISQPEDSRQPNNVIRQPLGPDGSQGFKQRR
UniProt Q96C24: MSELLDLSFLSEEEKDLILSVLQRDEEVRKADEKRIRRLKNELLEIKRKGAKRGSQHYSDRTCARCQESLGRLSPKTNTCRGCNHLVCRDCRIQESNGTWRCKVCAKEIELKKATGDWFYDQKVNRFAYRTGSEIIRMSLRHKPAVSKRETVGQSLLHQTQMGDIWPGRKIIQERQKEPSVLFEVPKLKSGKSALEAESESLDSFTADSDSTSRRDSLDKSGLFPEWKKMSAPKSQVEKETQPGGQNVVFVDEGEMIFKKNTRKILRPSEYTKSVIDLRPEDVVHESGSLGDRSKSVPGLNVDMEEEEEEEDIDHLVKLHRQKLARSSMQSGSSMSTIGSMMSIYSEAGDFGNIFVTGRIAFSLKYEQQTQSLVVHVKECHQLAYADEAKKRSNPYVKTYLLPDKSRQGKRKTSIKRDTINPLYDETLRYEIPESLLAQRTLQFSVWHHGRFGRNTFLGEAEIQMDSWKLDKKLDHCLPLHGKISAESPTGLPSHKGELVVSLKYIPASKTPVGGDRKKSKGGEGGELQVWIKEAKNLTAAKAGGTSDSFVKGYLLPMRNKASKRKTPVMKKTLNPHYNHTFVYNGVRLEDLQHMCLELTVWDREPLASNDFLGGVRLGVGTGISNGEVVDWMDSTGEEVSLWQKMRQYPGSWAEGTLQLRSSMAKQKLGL
UniProt Q9NRP7: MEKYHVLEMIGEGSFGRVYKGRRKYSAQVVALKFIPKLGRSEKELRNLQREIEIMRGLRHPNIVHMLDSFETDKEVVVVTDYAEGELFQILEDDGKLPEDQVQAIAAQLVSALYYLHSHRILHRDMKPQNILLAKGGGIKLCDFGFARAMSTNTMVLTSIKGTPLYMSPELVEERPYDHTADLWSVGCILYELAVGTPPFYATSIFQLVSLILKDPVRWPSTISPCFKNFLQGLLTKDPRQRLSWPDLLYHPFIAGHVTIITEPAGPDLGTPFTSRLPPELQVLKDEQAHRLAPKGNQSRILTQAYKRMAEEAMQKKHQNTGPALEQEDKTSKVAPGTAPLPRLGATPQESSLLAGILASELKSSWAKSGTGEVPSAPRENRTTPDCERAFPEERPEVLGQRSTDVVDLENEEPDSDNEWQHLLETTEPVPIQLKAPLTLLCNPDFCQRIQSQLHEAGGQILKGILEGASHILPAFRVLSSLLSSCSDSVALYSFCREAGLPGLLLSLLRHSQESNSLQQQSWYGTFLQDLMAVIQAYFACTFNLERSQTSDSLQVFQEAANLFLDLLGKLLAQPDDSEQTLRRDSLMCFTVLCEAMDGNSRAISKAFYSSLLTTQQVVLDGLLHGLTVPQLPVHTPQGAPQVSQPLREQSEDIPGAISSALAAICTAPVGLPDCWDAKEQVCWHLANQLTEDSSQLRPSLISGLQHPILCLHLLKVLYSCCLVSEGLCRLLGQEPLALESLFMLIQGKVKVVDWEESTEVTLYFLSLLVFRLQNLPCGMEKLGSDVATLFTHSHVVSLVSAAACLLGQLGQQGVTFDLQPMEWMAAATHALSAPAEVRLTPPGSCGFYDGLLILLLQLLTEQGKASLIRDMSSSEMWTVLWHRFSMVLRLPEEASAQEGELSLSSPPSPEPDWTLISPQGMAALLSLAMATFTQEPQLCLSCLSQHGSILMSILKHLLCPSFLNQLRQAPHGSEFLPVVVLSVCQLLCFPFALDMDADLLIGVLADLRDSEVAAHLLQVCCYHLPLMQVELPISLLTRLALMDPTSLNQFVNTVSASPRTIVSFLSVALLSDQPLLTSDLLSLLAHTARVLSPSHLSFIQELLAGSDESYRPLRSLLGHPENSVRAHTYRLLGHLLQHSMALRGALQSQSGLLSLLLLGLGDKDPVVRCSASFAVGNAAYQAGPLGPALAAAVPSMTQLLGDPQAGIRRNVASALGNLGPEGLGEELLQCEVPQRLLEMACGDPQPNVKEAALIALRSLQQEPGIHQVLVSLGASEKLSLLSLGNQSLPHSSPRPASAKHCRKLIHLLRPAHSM
UniProt Q8N5C8: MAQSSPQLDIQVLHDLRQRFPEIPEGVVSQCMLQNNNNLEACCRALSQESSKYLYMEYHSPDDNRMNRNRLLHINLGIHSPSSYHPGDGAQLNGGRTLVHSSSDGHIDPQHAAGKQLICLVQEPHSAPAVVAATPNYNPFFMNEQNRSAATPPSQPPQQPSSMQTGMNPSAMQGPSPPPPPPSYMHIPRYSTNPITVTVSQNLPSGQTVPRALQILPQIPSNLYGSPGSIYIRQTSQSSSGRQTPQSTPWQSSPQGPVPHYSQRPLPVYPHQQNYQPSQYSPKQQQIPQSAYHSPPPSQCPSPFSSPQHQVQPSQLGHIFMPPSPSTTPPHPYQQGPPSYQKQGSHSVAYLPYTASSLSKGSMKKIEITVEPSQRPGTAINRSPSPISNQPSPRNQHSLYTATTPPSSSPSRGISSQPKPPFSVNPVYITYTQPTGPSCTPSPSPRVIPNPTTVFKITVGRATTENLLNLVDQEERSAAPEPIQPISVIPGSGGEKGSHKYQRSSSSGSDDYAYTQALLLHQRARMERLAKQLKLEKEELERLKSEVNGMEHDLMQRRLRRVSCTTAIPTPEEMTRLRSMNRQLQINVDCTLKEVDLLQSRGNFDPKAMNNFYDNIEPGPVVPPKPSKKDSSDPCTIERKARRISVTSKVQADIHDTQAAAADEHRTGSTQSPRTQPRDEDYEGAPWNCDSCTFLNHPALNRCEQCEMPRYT
UniProt Q8WUJ0: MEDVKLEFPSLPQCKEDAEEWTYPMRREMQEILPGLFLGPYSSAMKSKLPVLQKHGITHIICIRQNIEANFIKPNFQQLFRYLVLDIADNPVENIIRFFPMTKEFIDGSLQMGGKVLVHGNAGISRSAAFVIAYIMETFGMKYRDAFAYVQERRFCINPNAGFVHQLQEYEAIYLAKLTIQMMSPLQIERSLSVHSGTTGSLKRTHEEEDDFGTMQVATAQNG
UniProt Q9UH65: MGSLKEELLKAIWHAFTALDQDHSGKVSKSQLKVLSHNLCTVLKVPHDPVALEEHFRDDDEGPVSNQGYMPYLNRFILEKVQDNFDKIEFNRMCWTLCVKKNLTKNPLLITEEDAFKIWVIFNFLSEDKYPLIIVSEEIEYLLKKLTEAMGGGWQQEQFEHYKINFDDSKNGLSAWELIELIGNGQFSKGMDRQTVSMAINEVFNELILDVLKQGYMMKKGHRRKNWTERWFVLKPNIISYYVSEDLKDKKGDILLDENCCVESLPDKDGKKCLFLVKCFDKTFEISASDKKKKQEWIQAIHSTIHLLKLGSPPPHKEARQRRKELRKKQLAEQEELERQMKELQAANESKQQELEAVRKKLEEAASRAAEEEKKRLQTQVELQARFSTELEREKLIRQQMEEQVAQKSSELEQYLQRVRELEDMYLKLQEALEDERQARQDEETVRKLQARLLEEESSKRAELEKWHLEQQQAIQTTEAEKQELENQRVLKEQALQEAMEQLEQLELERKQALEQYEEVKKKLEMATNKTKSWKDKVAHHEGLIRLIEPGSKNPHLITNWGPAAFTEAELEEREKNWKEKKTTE
UniProt Q92804: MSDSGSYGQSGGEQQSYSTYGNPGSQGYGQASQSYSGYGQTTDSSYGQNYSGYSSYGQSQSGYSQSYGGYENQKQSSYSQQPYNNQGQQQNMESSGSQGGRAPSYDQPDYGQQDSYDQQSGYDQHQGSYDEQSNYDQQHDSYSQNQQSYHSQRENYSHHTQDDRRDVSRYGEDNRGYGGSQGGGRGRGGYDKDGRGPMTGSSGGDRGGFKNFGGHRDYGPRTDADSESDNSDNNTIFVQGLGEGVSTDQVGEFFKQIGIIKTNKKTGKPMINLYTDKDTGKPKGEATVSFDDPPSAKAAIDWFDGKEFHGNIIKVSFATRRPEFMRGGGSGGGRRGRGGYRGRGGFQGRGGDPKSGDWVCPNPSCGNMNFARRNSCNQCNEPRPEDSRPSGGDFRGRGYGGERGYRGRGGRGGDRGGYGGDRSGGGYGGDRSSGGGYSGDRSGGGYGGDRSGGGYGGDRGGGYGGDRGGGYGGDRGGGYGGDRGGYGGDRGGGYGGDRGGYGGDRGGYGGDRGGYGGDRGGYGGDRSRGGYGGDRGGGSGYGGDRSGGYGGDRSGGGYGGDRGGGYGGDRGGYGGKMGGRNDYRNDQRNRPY
UniProt Q96I99: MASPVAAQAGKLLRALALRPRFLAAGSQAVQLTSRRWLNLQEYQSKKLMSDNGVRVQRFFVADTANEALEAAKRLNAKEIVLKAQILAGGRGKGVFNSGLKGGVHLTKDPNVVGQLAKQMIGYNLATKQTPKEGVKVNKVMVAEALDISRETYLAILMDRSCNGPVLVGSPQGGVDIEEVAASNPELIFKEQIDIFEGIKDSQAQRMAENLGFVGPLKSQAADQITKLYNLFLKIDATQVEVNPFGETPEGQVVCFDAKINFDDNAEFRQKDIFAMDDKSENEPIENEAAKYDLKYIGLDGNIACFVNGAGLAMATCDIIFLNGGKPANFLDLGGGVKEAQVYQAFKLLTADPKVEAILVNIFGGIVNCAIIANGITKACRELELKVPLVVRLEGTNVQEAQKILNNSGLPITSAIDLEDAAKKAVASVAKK
UniProt P27105: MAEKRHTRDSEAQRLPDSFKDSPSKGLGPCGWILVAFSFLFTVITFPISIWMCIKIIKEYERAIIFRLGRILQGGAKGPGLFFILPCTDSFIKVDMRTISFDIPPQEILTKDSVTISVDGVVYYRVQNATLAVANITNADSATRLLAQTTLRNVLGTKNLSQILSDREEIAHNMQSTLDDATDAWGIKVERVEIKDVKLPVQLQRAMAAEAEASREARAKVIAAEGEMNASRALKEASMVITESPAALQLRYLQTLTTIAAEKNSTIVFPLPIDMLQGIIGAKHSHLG

How the values were obtained:
Test in all cases: log2 fold change, soluble protein after heating vs DMSO (PISA); higher = thermal stabilisation; K562 lysate, 10 uM; active = over 0.2 and 3.5 SD of the protein, either way, in both replicates (recomputed)
[1] = compound: CS(=O)(=O)CCNCc1ccc(-c2ccc3ncnc(Nc4ccc(OCc5cccc(F)c5)c(Cl)c4)c3c2)o1 [lapatinib]
Summary of the method: (§1)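 The values are log-two fold changes in thermal stability compared with solvent controls and come from duplicates. They were obtained by TMTpro 16plex LC-MS/MS, with channel sums equalised, on the supernatant after 21,000xg for 90 min. That supernatant came from crude K562 extract at 1 mg/mL protein treated with 10 μM compound for 30 min, heated for 3 min across 48°C-58°C, pooled and brought to 0.5% NP-40 at 4°C.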

[2] = compound: CS(=O)(=O)N1CCN(Cc2cc3nc(-c4cccc5[nH]ncc45)nc(N4CCOCC4)c3s2)CC1 [pictilisib]
Summary of the method: as §1

[3] = compound: C[C@@H](Oc1cc(-c2cnn(C3CCNCC3)c2)cnc1N)c1c(Cl)ccc(F)c1Cl [crizotinib]
Summary of the method: as §1

[4] = compound: C[C@H](C1=CC=C(C=C1)C(=O)NC2=C3C=CNC3=NC=C2)N
Summary of the method: as §1

[5] = compound: C[C@H](Nc1ncnc2nc[nH]c12)c1cc2cccc(Cl)c2c(=O)n1-c1ccccc1 [duvelisib]
Summary of the method: as §1

[6] = compound: Cc1cc(Nc2cc(CN3CCOCC3)c3nc(C)c(Cc4ccc(Cl)cc4F)n3n2)n[nH]1 [gandotinib]
Summary of the method: as §1

[7] = compound: Cc1cc(Nc2cc(N3CCN(C)CC3)nc(Sc3ccc(NC(=O)C4CC4)cc3)n2)n[nH]1 [tozasertib]
Summary of the method: as §1

[8] = compound: Cc1ccc(-n2nc(C(C)(C)C)cc2NC(=O)Nc2ccc(OCCN3CCOCC3)c3ccccc23)cc1 [doramapimod]
Summary of the method: as §1

[9] = compound: Cc1ccc(NC(=O)c2ccc(CN3CC[C@H](N(C)C)C3)c(C(F)(F)F)c2)cc1Nc1nccc(-c2cncnc2)n1 [bafetinib]
Summary of the method: as §1

[10] = compound: Cc1cccc(CC(=O)N2CCc3c2ccc(-c2cn(C)c4ncnc(N)c24)c3F)n1
Summary of the method: as §1

Target | log2 fold change [1] | log2 fold change [2] | log2 fold change [3] | log2 fold change [4] | log2 fold change [5] | log2 fold change [6] | log2 fold change [7] | log2 fold change [8] | log2 fold change [9] | log2 fold change [10]
SUMF1 (UniProt Q8NBK3) | inactive: -0.03 | inactive: 0.012 | inactive: -0.003 | inactive: -0.059 | inactive: 0.01 | inactive: 0.022 | inactive: 0.097 | inactive: -0.024 | inactive: 0.011 | inactive: -0.046
SULT1A1 (UniProt P50225) | inactive: 0.023 | inactive: -0.052 | inactive: -0.074 | inactive: -0.014 | inactive: -0.009 | inactive: -0.023 | inactive: -0.002 | inactive: -0.037 | inactive: -0.025 | inactive: 0.046
TAF10 (UniProt Q12962) | inactive: 0.008 | inactive: -0.073 | inactive: 0.011 | inactive: 0.039 | inactive: -0.013 | inactive: 0.021 | inactive: 0.004 | inactive: -0.035 | inactive: 0.066 | inactive: -0.005
SUZ12 (UniProt Q15022) | inactive: 0.015 | inactive: 0.043 | inactive: -0.021 | inactive: 0.048 | inactive: -0.016 | inactive: 0.027 | inactive: 0.006 | inactive: 0 | inactive: -0.113 | inactive: 0.009
STON2 isoform 3 (UniProt Q8WXE9) | inactive: 0.021 | inactive: -0.004 | inactive: -0.08 | inactive: -0.009 | inactive: -0.009 | inactive: 0.047 | inactive: 0 | inactive: 0.044 | inactive: -0.065 | inactive: 0.041
SUPT4H1 (UniProt P63272) | inactive: -0.04 | inactive: -0.06 | inactive: -0.09 | inactive: 0.047 | inactive: 0.004 | inactive: -0.014 | inactive: -0.115 | inactive: -0.05 | inactive: 0.031 | inactive: -0.043
STX7 (UniProt O15400) | inactive: -0.016 | inactive: -0.015 | inactive: 0.039 | inactive: -0.063 | inactive: -0.001 | inactive: 0.044 | inactive: -0.036 | inactive: -0.002 | inactive: -0.006 | inactive: 0.002
SZRD1 (UniProt Q7Z422) | inactive: -0.004 | inactive: -0.012 | inactive: 0.006 | inactive: -0.062 | inactive: -0.098 | inactive: 0.054 | inactive: 0.017 | inactive: 0.005 | inactive: 0.013 | inactive: 0.015
STX8 (UniProt Q9UNK0) | inactive: -0.022 | inactive: -0.083 | inactive: -0.052 | inactive: 0.004 | inactive: 0.048 | inactive: -0.043 | inactive: 0.05 | inactive: 0.081 | inactive: 0.104 | inactive: 0.003
SYTL4 (UniProt Q96C24) | inactive: -0.043 | inactive: 0.125 | inactive: -0.016 | inactive: -0.007 | inactive: -0.042 | inactive: -0.068 | inactive: 0.052 | inactive: 0.051 | inactive: -0.082 | inactive: 0.036
STOML2 (UniProt Q9UJZ1) | inactive: 0.013 | inactive: -0.021 | inactive: 0.028 | inactive: 0.089 | inactive: 0.035 | inactive: 0.015 | inactive: 0.012 | inactive: -0.032 | inactive: 0.033 | inactive: -0.023
STK36 (UniProt Q9NRP7) | inactive: -0.213 | inactive: -0.007 | inactive: -0.833 | inactive: -0.551 | inactive: 0.191 | inactive: 0.284 | inactive: 0 | inactive: 0.202 | inactive: -0.322 | inactive: 0.398
STX4 (UniProt Q12846) | inactive: -0.006 | inactive: -0.004 | inactive: 0.025 | inactive: 0.091 | inactive: 0.009 | inactive: -0.019 | inactive: 0.071 | inactive: -0.011 | inactive: 0.038 | inactive: -0.041
SUGP2 (UniProt Q8IX01) | inactive: 0 | inactive: -0.028 | inactive: -0.01 | inactive: -0.056 | inactive: -0.005 | inactive: -0.019 | inactive: 0.001 | inactive: -0.134 | inactive: -0.167 | inactive: 0.089
STT3B (UniProt Q8TCJ2) | inactive: 0.01 | inactive: 0.026 | inactive: -0.044 | inactive: -0.112 | inactive: -0.008 | inactive: 0.152 | inactive: -0.007 | inactive: 0.06 | inactive: -0.014 | inactive: 0.128
TAB3 (UniProt Q8N5C8) | inactive: -0.037 | inactive: -0.062 | inactive: 0.08 | inactive: 0.021 | inactive: 0.059 | inactive: -0.081 | inactive: -0.066 | inactive: -0.113 | inactive: 0.169 | inactive: -0.038
STK24 (UniProt B4DR80) | inactive: 0.006 | inactive: 0 | inactive: 0.044 | inactive: 0.034 | inactive: -0.016 | inactive: 0.089 | inactive: 0.001 | inactive: -0.054 | inactive: 0.004 | inactive: 0
STIP1 isoform 2 (UniProt P31948) | inactive: 0.009 | inactive: 0.006 | inactive: 0.065 | inactive: 0.085 | inactive: 0.017 | inactive: -0.053 | inactive: 0.006 | inactive: -0.021 | inactive: 0.025 | inactive: -0.119
STYX (UniProt Q8WUJ0) | inactive: -0.019 | inactive: -0.073 | inactive: -0.039 | inactive: 0.052 | inactive: 0.074 | inactive: -0.099 | inactive: -0.031 | inactive: 0.078 | inactive: 0.078 | inactive: -0.093
SYNE2 isoform 2 (UniProt Q8WXH0) | inactive: -0.082 | inactive: -0.103 | inactive: 0.058 | active: -0.93 | inactive: 0.073 | inactive: 0.296 | inactive: -0.003 | inactive: 0.183 | inactive: -0.194 | inactive: 0.397
SWAP70 (UniProt Q9UH65) | inactive: 0.007 | inactive: 0 | inactive: 0.044 | inactive: -0.158 | inactive: 0.023 | inactive: 0.074 | inactive: 0.011 | inactive: -0.004 | inactive: 0.004 | inactive: 0.083
SYNGR2 (UniProt O43760) | inactive: 0.02 | inactive: 0.056 | inactive: -0.016 | inactive: -0.024 | inactive: -0.002 | inactive: 0.037 | inactive: 0.003 | inactive: 0.07 | inactive: -0.091 | inactive: 0.07
STXBP4 (UniProt Q6ZWJ1) | inactive: 0.032 | inactive: -0.033 | inactive: 0 | inactive: 0.033 | inactive: -0.025 | inactive: 0.007 | inactive: 0.025 | inactive: 0.023 | inactive: 0.014 | inactive: -0.006
TAB2 (UniProt Q9NYJ8) | inactive: 0.02 | inactive: 0.027 | inactive: -0.077 | inactive: 0.098 | inactive: -0.014 | inactive: 0.002 | inactive: -0.019 | inactive: -0.069 | inactive: -0.002 | inactive: 0.093
TAF15 (UniProt Q92804) | inactive: 0.013 | inactive: -0.016 | inactive: 0.091 | inactive: 0.049 | inactive: 0.004 | inactive: -0.015 | inactive: -0.017 | inactive: -0.063 | inactive: 0.04 | inactive: -0.058
SUPT5H (UniProt O00267) | inactive: -0.016 | inactive: -0.009 | inactive: 0.017 | inactive: 0.058 | inactive: 0.003 | inactive: -0.016 | inactive: 0.012 | inactive: 0.009 | inactive: -0.023 | inactive: -0.025
SUCLG2 (UniProt Q96I99) | inactive: -0.032 | inactive: 0.007 | inactive: 0.005 | inactive: -0.016 | inactive: 0.021 | inactive: -0.048 | inactive: 0.012 | inactive: 0.022 | inactive: -0.005 | inactive: -0.009
SUPT6H (UniProt Q7KZ85) | inactive: -0.021 | inactive: -0.045 | inactive: -0.035 | inactive: -0.064 | inactive: -0.041 | inactive: 0.066 | inactive: -0.046 | inactive: 0.052 | inactive: -0.037 | inactive: 0.056
SYNJ2BP-COX16, A0A087WYV9 | inactive: -0.182 | inactive: -0.032 | inactive: 0.021 | inactive: 0.124 | inactive: -0.005 | inactive: -0.09 | inactive: -0.055 | inactive: -0.001 | inactive: -0.047 | inactive: 0.004
STOM (UniProt P27105) | inactive: -0.023 | inactive: -0.027 | inactive: 0.036 | inactive: -0.053 | inactive: 0.037 | inactive: 0.03 | inactive: 0.02 | inactive: 0.002 | inactive: -0.011 | inactive: 0.013

Taken from the listing for reference:
Target | log2 fold change [1] | log2 fold change [2] | log2 fold change [3] | log2 fold change [4] | log2 fold change [5] | log2 fold change [6] | log2 fold change [7] | log2 fold change [8] | log2 fold change [9] | log2 fold change [10]
SUPT5H (UniProt O00267) | inactive: -0.016 | inactive: -0.009 | inactive: 0.017 | inactive: 0.058 | inactive: 0.003 | inactive: -0.016 | inactive: 0.012 | inactive: 0.009 | inactive: -0.023 | inactive: -0.025
SUCLG2 (UniProt Q96I99) | inactive: -0.032 | inactive: 0.007 | inactive: 0.005 | inactive: -0.016 | inactive: 0.021 | inactive: -0.048 | inactive: 0.012 | inactive: 0.022 | inactive: -0.005 | inactive: -0.009
